# The supplement of paper PMC12067093, “Discovery and optimisation of a covalent ligand for TRIM25 and its application to targeted protein ubiquitination” (Chemical Science, 2025)
# The chains behind the UniProt entries cited, without tags or fusion partners. Where a name states a change or a piece, a line headed by the entry shows the natural chain unless it says otherwise.
# UniProt P37802: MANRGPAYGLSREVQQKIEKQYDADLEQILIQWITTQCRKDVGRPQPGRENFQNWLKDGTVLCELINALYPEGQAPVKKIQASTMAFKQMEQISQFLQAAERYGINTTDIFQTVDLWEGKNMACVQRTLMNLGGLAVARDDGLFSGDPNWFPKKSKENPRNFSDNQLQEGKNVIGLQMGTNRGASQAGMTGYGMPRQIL
# UniProt Q9BTW9: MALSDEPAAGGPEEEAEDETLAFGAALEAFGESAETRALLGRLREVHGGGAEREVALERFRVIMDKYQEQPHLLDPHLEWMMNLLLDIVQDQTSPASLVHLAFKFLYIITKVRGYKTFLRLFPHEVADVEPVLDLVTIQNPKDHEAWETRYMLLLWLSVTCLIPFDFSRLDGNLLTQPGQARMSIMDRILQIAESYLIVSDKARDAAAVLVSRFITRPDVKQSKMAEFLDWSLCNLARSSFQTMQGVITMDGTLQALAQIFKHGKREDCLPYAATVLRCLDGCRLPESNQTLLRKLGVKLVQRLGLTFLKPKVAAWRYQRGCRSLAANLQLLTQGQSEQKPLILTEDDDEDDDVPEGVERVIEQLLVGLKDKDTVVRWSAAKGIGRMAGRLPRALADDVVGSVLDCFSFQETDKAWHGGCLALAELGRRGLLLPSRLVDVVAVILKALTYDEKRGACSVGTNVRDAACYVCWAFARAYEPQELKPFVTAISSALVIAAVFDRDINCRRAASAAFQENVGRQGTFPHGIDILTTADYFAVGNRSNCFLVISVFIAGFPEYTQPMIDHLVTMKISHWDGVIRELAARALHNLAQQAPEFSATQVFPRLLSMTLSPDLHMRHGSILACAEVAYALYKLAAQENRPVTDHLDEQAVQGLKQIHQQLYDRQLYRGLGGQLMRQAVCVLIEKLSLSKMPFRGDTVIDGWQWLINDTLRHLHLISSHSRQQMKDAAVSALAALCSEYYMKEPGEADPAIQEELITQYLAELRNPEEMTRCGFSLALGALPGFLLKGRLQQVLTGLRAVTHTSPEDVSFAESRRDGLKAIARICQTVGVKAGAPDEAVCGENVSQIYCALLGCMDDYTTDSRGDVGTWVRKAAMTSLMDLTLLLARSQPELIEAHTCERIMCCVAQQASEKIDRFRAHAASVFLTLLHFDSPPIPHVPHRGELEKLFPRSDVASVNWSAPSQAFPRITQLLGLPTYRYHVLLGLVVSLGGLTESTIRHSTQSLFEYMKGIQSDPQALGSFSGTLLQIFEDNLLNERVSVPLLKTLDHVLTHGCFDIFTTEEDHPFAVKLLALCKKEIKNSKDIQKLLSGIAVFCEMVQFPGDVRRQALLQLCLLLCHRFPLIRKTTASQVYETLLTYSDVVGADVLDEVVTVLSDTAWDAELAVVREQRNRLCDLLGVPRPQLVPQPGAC
# UniProt Q9UL54: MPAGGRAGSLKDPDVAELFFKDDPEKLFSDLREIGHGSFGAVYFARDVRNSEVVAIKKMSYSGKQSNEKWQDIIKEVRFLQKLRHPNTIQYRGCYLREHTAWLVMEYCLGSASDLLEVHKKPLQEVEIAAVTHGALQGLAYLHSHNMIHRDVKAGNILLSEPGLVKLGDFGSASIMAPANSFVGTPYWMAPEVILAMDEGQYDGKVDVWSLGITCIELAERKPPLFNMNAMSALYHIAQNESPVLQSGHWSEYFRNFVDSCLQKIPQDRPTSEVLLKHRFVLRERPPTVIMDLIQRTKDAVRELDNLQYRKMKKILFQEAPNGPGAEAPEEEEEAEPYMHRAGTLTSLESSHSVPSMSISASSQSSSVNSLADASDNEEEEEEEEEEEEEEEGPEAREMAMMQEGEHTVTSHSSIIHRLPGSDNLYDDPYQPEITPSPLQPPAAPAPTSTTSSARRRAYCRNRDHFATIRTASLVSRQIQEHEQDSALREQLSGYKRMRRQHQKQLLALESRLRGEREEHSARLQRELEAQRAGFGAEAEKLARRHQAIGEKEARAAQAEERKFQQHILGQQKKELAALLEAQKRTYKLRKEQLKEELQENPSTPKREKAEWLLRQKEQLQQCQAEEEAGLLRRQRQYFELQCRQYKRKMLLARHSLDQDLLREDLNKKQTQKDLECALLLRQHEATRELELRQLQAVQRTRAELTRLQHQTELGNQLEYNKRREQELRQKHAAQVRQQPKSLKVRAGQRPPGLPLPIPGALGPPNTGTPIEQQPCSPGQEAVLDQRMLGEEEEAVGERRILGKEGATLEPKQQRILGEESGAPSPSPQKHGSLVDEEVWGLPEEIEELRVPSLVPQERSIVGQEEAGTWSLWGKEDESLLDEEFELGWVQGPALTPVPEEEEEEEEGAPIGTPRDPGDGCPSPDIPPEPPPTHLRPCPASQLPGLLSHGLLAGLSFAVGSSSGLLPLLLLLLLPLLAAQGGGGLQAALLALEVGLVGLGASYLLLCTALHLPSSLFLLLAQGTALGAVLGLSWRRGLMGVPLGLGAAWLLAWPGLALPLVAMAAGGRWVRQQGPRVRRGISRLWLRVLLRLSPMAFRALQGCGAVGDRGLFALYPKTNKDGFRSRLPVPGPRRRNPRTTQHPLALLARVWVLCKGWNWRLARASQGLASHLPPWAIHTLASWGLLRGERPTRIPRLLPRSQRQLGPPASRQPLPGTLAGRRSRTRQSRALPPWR
# UniProt Q66K14, whole entry, looked up: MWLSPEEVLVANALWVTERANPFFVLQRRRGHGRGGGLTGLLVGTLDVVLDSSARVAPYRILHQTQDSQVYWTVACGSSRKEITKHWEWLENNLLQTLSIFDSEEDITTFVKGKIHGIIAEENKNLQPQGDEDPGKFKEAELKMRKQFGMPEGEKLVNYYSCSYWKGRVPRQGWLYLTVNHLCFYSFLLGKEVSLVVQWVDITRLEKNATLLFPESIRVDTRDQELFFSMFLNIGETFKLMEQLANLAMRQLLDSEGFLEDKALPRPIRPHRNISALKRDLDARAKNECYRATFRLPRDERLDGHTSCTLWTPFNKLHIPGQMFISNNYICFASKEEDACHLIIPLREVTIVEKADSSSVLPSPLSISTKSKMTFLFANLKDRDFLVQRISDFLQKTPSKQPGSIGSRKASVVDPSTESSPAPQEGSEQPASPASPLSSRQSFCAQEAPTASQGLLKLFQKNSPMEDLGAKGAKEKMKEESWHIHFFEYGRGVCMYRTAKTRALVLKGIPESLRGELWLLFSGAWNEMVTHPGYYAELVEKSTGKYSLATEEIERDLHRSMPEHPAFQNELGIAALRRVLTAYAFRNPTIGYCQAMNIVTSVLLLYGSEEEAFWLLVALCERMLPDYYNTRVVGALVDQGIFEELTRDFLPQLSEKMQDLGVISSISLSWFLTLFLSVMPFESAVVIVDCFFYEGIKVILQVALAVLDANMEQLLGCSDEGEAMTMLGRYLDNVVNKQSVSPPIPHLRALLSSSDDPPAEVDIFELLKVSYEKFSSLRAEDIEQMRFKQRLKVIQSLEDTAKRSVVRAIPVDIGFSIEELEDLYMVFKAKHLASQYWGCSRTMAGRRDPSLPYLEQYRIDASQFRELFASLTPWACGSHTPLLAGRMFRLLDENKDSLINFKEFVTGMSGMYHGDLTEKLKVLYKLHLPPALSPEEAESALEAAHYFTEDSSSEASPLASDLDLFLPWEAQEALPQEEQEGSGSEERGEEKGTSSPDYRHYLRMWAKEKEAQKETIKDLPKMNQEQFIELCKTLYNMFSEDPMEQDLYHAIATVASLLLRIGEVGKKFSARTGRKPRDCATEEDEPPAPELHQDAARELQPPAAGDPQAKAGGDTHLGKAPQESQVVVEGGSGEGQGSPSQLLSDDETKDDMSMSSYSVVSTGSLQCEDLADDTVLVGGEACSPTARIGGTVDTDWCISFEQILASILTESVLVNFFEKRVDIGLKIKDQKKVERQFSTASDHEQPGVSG
# UniProt Q9UMS6: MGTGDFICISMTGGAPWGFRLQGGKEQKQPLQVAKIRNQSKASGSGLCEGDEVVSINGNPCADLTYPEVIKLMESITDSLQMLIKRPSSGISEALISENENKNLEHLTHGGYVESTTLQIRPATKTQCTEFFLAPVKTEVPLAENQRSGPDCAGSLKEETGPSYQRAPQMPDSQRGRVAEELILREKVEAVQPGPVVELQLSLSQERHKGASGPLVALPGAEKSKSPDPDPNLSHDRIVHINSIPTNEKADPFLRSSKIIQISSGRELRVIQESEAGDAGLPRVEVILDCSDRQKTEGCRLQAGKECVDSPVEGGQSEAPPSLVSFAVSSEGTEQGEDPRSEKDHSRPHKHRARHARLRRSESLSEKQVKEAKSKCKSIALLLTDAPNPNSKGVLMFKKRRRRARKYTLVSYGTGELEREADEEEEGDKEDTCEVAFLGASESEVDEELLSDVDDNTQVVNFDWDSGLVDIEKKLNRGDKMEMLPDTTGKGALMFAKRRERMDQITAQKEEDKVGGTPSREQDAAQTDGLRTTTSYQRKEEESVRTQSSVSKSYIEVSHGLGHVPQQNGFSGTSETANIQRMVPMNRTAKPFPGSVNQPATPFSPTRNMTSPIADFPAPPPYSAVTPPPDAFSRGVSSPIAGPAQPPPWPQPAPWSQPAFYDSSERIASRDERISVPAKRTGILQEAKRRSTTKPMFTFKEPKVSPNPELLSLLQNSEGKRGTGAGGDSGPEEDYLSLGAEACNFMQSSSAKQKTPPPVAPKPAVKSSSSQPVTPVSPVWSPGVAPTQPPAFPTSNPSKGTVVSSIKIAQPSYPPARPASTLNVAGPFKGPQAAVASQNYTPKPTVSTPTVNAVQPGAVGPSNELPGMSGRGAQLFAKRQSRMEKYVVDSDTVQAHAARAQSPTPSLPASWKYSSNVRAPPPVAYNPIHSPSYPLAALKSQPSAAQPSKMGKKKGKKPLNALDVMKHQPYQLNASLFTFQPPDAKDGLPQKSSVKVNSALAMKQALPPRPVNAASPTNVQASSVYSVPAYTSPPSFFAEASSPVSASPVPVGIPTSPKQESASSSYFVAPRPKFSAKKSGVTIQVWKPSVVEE
# UniProt Q0IIM8: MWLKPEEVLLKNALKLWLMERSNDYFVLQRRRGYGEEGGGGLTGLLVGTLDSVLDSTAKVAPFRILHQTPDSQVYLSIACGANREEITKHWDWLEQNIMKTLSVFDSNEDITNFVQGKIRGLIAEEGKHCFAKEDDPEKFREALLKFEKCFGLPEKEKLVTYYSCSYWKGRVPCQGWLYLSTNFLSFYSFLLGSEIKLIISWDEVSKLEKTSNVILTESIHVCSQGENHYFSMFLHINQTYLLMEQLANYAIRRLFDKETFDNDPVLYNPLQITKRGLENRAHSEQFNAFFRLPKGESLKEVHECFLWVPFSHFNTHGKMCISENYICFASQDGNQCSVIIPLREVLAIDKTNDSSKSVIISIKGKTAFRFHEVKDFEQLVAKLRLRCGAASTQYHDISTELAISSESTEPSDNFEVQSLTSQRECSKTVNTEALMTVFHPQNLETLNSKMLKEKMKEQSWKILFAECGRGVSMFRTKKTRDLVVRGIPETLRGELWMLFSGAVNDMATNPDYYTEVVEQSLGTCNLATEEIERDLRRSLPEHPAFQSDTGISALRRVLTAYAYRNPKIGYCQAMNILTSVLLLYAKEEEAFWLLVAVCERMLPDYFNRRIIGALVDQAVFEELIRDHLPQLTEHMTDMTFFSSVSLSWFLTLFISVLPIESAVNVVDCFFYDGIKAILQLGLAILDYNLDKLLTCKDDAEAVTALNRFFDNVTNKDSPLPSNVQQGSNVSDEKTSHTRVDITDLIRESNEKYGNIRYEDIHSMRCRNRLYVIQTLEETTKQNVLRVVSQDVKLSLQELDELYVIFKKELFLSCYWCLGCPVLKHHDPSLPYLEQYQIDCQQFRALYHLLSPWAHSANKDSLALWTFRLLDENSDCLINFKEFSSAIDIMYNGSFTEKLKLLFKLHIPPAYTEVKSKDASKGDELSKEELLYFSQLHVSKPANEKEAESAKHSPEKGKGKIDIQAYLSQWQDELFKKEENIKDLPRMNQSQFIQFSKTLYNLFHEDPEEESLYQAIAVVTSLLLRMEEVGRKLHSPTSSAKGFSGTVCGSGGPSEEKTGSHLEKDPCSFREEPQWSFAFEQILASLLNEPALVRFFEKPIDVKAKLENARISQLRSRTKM
# UniProt Q15633: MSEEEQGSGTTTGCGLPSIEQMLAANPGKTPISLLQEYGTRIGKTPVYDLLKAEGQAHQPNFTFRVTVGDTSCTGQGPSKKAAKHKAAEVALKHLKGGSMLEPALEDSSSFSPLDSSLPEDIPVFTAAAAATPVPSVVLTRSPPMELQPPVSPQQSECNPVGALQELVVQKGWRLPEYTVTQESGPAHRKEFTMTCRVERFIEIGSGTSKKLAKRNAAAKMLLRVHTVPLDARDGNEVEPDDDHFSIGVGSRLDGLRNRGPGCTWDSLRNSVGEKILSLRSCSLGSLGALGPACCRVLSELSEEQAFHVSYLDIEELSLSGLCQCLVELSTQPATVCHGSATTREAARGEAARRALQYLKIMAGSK
# The other results are listed elsewhere or left out.
# Compound: Cc1cc(ccc1-c1ccccc1)C(=O)N1CCCN(CC1)C(=O)CCl [compound 10]
# Test: probe-labelled cysteine peptide fold change vs DMSO (competition) (log2 fold change); higher = less target engagement (more negative = stronger competition)
# Conditions: 10 µM; THP-1; incubation time: 4 h
# 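Also: competitive profiling in live THP-1 cells: cysteine peptides tagged with an iodoacetamide desthiobiotin (IA-DTB) probe, intensity after compound treatment relative to DMSO-treated cells.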
row,Target,probe-labelled cysteine peptide fold change
1,TAF11_Q15544_173_VFVGEVVEEALDVCEK (UniProt Q15544),0.218
2,TAGLN2_P37802_38_QYDADLEQILIQWITTQCRK (UniProt P37802),-0.622
3,TBCD_Q9BTW9_457_GACSVGTNVR (UniProt Q9BTW9),-0.073
4,TBC1D2B_Q9UPU7_38_LCGYLQK (UniProt Q9UPU7),-0.25
5,TAF6L_Q9Y6J9_122_GCAETAVR (UniProt Q9Y6J9),-0.123
6,TAF5_Q15542_715_GHTDTVCSLR (UniProt Q15542),0.202
7,TAOK2_Q9UL54_643_QYFELQCR (UniProt Q9UL54),0.132
8,TBCCD1_Q9NVR7_337_CNESFIYLLSPLR (UniProt Q9NVR7),0.178
9,TBC1D9B_Q66K14_876_ELFASLTPWACGSHTPLLAGR (UniProt Q66K14),-0.0144
10,SYNJ2_O15056_31_GRDDCLLFEAGTVATLAPEEK (UniProt O15056),0.124
11,SYNPO2_Q9UMS6_290_VEVILDCSDR (UniProt Q9UMS6),-0.3
12,TACO1_Q9BSH4_160_CQADIR (UniProt Q9BSH4),-0.127
13,TBL3_Q12788_41+43_AQLDQTGQHLFCVCGTR (UniProt Q12788),0.0953
14,TAMM41_Q96BW9_285_DVEETLFQVAHDPDCGDVVR (UniProt Q96BW9),-0.0697
15,TANC1_Q9C0D5_1003_KGQCALVHSALR (UniProt Q9C0D5),-0.0351
16,TATDN1_Q6P1N9_81_CGEFEK (UniProt Q6P1N9),-0.227
17,TAF2_Q6P1X5_34_LTHQVVCINNINFQR (UniProt Q6P1X5),-0.181
18,TAF7_Q15545_72_LVDLPCVMESLK (UniProt Q15545),-0.167

# For convenience, part of the list above.
row,Target,probe-labelled cysteine peptide fold change
11,SYNPO2_Q9UMS6_290_VEVILDCSDR (UniProt Q9UMS6),-0.3
12,TACO1_Q9BSH4_160_CQADIR (UniProt Q9BSH4),-0.127

# Carrying on:

row,Target,probe-labelled cysteine peptide fold change
1,TCEA2_Q15560_173_LSAQIEECIFR (UniProt Q15560),0.18
2,TACC3_Q9Y6A5_828_ICDDLISK (UniProt Q9Y6A5),0.28
3,TBC1D22B_Q9NU19_144_NSSDTCLR (UniProt Q9NU19),-0.263
4,TBC1D15_Q8TC07_605_IDVEDILCK (UniProt Q8TC07),0.204
5,TBK1_Q9UHD2_267_AENGPIDWSGDMPVSCSLSR (UniProt Q9UHD2),0.0709
6,TBC1D8B_Q0IIM8_840_HHDPSLPYLEQYQIDCQQFR (UniProt Q0IIM8),0.15
7,TAP1_Q03518_722_KPCVLILDDATSALDANSQLQVEQLLYESPER (UniProt Q03518),0.0289
8,TBCD_Q9BTW9_420_AWHGGCLALAELGR (UniProt Q9BTW9),0.074
9,TBC1D9B_Q66K14_76_ILHQTQDSQVYWTVACGSSR (UniProt Q66K14),0.207
10,TARBP2_Q15633_73_VTVGDTSCTGQGPSK (UniProt Q15633),0.0896
11,TAF4_O00268_1066_DLIFCLENER (UniProt O00268),0.0993
12,TBL1X_O60907_571_VGASASDGSVCVLDLR (UniProt O60907),-0.0134
13,SZT2_Q5T011_2339_CPVVVDSSSAQNGAPR (UniProt Q5T011),-0.0902
14,TACC1_O75410_219_AGNSCPELVPSR (UniProt O75410),-0.318
15,TADA1_Q96BN2_139_LCSHTMMLPTR (UniProt Q96BN2),-0.18
16,TBC1D8B_Q0IIM8_80_ILHQTPDSQVYLSIACGANREEITK (UniProt Q0IIM8),0.0612
17,TAGLN2_P37802_124_NMACVQR (UniProt P37802),0.191
